From paper PMC11090508
These are yes or no findings as the source states them, for the method shown. In cells and extracts the contact can be indirect. Here binding means that the protein was enriched with, or labelled near, the bait; the list need not be complete. Sequences can lack the tags named with a protein.

Chains of the proteins cited; added tags and fusions are not shown.
UniProt P05198: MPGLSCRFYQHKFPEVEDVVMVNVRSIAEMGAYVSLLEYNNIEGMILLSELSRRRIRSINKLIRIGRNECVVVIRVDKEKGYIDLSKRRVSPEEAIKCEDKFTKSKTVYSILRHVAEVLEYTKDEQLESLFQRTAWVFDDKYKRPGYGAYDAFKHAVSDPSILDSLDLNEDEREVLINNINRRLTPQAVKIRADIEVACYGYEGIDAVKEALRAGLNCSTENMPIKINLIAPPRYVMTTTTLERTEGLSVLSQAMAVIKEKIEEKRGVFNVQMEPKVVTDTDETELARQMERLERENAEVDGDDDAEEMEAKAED
UniProt P60842: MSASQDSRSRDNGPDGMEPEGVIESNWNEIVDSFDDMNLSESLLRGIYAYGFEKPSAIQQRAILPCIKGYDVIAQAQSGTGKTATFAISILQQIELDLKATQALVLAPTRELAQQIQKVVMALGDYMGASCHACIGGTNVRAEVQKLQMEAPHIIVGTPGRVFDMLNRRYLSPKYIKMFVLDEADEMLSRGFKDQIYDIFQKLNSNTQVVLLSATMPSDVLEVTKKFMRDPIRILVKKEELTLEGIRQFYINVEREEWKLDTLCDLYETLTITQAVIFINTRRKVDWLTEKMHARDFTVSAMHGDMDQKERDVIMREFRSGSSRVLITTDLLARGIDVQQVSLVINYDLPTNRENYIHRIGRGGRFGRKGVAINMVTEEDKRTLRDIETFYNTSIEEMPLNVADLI

Molecular target: T1, FLAG-BirA*-IBTK (inhibitor of Bruton's tyrosine kinase) (UniProt Q9P2D0)
T1 sequence: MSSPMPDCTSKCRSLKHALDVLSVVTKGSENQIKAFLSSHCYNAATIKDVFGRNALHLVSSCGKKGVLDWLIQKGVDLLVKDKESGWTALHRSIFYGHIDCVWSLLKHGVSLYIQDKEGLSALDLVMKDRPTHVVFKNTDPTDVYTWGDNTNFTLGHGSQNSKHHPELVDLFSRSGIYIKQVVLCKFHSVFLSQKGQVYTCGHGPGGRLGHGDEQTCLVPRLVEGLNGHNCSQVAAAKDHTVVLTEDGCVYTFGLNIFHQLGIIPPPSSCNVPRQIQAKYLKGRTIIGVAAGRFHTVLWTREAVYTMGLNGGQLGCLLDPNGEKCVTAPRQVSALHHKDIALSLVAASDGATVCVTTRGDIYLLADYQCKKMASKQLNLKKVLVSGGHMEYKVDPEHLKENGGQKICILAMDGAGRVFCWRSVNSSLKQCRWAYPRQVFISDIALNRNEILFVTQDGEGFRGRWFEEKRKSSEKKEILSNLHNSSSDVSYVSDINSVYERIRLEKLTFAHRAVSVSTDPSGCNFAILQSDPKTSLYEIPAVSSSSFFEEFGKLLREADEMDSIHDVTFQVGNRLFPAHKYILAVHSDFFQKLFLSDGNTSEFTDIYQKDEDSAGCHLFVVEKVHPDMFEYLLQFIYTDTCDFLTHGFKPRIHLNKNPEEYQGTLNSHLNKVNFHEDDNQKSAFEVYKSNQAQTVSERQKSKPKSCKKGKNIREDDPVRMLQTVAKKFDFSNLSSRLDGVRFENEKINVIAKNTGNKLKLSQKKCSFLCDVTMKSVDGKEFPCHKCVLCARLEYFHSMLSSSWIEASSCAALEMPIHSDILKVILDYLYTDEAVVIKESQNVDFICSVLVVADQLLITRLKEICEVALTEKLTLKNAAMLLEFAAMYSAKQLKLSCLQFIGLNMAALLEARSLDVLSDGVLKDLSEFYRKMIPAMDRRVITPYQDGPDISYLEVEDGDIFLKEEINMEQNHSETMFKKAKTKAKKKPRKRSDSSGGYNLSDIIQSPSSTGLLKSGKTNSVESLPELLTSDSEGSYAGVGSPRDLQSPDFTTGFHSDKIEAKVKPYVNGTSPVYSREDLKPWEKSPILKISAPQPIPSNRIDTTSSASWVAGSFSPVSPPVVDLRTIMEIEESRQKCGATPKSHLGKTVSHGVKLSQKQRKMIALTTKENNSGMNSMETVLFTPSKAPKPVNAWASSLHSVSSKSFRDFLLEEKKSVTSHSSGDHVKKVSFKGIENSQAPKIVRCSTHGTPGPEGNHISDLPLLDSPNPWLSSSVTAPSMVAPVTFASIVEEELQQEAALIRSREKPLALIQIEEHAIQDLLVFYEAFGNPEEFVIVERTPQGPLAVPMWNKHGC
Assay: affinity purification with mass spectrometry; FLAG-BirA*-IBTK from DOX-induced Flp-In T-REx 293 cells; NP-40 lysis buffer (0.1% NP-40); anti-FLAG M2 agarose, eluted with FLAG peptide; SDS-PAGE, gel bands sequenced by MS

| binding | Substance |
| --- | --- |
| binds | eIF2α, endogenous (from UniProt P05198 1-315) |
| binds | eIF4A1, endogenous (from UniProt P60842 1-406) |
